Reference: patent US20060270622A1
Results are given in words; binding and its absence hold for the method and conditions named. Some binding calls cover weakened binding; strength is not graded here.

By UniProt entry, the sequences of proteins in these tests, tags left out. Where a name states a change or a piece, a line headed by the entry shows the natural chain unless it says otherwise. Residues count along the entry.
UniProt P02748, residues 22-559: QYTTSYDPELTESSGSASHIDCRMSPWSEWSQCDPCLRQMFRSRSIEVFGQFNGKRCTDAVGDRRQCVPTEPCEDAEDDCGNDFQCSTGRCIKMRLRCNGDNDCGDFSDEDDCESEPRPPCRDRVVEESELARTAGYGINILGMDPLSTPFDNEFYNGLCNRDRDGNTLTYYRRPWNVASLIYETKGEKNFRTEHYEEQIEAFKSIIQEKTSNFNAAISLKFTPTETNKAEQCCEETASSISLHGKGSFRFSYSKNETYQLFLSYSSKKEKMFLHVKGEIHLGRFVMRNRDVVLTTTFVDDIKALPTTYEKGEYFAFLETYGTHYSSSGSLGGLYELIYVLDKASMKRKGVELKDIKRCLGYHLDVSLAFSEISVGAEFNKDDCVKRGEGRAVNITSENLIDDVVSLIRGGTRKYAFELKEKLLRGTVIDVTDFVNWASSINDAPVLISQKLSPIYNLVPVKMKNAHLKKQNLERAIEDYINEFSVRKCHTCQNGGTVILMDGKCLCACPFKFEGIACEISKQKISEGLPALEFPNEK
UniProt P07357: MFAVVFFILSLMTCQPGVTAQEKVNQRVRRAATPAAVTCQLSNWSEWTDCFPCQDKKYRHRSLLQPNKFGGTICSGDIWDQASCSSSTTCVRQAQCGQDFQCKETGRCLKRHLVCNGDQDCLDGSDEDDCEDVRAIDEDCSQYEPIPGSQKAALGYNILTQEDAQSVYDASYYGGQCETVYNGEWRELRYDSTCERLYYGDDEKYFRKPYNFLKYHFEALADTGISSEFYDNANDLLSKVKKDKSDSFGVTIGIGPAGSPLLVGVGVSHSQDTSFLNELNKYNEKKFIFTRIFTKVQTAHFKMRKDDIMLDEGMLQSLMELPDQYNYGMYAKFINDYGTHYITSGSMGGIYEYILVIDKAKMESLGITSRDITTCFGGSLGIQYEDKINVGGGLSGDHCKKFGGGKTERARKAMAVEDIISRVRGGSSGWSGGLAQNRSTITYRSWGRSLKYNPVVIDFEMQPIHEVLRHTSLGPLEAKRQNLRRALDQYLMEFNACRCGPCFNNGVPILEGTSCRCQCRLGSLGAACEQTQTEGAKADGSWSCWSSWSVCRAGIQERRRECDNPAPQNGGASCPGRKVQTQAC
UniProt P07358: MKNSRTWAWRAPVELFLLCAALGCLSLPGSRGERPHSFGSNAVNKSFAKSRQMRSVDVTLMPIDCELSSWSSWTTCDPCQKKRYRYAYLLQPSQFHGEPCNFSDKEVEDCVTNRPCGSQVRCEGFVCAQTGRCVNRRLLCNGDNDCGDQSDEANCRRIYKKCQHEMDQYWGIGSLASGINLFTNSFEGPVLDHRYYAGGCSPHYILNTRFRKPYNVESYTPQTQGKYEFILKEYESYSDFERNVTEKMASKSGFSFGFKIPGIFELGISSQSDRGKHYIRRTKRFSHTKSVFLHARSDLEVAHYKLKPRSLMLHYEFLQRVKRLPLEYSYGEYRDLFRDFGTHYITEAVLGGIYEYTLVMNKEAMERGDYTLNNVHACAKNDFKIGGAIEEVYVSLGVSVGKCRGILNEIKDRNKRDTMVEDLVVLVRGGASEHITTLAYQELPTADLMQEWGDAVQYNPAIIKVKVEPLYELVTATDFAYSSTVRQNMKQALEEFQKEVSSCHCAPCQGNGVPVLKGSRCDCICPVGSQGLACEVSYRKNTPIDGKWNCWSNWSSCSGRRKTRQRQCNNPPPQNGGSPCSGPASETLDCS
UniProt P07360: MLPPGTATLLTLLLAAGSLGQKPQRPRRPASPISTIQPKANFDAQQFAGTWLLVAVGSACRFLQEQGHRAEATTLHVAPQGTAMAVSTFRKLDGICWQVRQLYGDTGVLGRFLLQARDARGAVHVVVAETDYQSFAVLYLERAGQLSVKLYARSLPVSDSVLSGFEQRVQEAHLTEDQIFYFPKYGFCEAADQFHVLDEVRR
UniProt P38646: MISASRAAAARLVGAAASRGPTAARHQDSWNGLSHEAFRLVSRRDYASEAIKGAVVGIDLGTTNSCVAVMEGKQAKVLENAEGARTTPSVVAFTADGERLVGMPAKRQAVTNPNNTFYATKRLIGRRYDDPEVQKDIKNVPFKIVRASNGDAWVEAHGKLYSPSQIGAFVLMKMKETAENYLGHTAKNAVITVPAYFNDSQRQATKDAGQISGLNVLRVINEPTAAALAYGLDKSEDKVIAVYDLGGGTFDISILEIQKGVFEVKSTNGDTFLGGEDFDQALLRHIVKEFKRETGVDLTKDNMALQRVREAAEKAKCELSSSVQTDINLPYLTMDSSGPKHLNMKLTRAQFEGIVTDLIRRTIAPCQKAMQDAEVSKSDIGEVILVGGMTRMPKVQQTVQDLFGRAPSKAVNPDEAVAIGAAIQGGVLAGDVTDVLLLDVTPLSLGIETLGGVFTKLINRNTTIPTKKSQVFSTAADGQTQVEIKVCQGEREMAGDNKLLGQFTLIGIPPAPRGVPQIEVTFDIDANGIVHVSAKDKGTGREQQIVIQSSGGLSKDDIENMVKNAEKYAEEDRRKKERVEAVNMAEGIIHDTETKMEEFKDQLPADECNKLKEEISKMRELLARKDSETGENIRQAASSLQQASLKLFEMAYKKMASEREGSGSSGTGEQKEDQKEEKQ

Tests used:
[1] = target: purified human complement C9 (human) (UniProt P02748); experiment: ELISA, C9 attached to microtiter plates (data not shown)
human C8 (human) = human C8 (human) (UniProt P07357+P07358+P07360); experiment: ELISA, C8 attached to microtiter plates (data not shown)
[2] = target: purified human complement C9 (human) (UniProt P02748); experiment: blot overlay with K562 cell lysate pre-mixed with soluble C9 as competitor
[3] = target: purified human complement C9 (human) (UniProt P02748); experiment: blot overlay: C9 on nitrocellulose after reducing SDS-PAGE, incubated with K562 cell lysate, detected with anti-mortalin antibody
[4] = target: purified human complement C9 (human) (UniProt P02748); experiment: blot overlay (FIG. 7 legend), K562 cell lysate on blotted C9, anti-mortalin detection

Measured: binding

mortalin (mot-2, GRP75; gene: HSPA9B; GenBank Identifier gi:24234688) (from UniProt P38646 47-679)
binds: all assays above
